The results in this text go back to article PMC7168109.

The exact form of at least one protein or probe is not confirmed. At least one result comes from cells or an extract, where the contact may be indirect. At least one verdict rests on a figure or table, not on a statement of the authors.

In the data set the target is T1, PTK7 (tyrosine protein kinase 7, CCK4) on CCRF-CEM or Jurkat cells (UniProt Q13308).
T1 sequence: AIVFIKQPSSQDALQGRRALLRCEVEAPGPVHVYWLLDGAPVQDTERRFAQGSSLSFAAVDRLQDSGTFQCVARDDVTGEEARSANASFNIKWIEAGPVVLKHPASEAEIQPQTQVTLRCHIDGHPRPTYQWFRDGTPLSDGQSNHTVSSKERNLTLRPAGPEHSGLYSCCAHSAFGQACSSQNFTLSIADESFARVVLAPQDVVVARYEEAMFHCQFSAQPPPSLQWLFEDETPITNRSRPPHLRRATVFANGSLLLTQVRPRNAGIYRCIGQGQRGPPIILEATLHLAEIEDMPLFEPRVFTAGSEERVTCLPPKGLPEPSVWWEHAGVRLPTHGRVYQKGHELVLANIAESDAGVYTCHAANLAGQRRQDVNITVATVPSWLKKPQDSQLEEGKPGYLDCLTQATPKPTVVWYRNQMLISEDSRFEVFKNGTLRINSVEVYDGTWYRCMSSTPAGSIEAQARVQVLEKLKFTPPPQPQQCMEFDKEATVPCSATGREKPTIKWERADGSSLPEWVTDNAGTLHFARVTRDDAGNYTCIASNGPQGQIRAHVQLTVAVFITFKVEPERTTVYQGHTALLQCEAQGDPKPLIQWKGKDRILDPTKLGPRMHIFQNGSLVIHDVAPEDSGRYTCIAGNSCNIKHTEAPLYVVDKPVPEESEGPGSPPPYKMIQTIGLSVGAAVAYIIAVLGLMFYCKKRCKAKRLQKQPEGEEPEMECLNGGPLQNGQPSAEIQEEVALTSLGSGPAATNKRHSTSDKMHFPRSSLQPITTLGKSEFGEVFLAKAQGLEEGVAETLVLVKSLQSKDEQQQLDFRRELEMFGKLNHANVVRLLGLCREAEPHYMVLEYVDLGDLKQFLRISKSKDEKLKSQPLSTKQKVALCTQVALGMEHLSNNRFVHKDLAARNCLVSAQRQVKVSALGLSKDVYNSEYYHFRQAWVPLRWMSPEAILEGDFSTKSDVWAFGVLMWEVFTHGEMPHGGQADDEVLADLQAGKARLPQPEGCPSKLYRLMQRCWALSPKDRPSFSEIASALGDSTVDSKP
The data set is described as follows: flow cytometry. As to conditions: 200 nM aptamer, Flow cytometry on whole cells: 200 nM aptamer, 4 °C, 30 min in the dark, cells washed with PBS before incubation, three washes after, binding buffer and pH not stated, protein on the cell surface, label: 5'-FAM, single-stranded DNA. (In flow cytometry, cells or beads pass a laser one at a time.)

With “TTTTTTTTTTATCTAACTGCTGCGCCGCCGGGAAAATACTGTACGGTTAGA [Sgc8-FAM]”, the binding result was “binds” (CCRF-CEM cells (PTK7-positive), stronger shift than Jurkat) and “binds” (Jurkat cells (PTK7-positive), strong binding, smaller shift than CCRF-CEM).
